Assay results as given in paper PMC9922281.
No constants are given. Whether binding was seen depends on the method and setting. Binding seen in cells or lysates may run through a third protein. Some results given as binding are weak or reduced against the parent protein; the word gives no strength.

Sequences of proteins named here, by UniProt entry; tags and fusion partners are left off.
UniProt P46937: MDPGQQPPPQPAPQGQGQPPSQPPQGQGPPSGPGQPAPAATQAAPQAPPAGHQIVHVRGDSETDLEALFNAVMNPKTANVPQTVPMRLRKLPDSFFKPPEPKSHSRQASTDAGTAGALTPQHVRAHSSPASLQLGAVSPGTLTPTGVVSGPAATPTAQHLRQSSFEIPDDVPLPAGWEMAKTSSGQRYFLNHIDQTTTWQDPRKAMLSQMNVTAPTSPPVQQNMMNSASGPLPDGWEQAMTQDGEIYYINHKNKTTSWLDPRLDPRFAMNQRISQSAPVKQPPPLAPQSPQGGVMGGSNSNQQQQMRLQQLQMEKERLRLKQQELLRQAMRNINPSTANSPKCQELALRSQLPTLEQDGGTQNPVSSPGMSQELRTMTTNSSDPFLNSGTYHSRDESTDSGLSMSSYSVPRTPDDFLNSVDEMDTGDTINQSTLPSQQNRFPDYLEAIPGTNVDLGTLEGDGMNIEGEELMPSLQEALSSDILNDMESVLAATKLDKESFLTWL

Assays:
[1] = molecular target: T1, dermatopontin (DPT), endogenous (human (endogenous in BT549 and MDA-MB-231)) (UniProt Q07507); assay: co-IP; endogenous proteins in BT549 and MDA-MB-231 lysates; precipitation with Anti-YAP1 or Anti-DPT antibodies; western blot
T1 sequence: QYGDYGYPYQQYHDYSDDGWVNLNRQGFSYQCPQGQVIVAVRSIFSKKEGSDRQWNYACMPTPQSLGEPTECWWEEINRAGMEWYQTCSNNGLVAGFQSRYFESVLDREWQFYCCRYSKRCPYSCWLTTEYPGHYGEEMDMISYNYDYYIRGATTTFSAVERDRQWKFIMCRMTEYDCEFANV

[2] = molecular target: T2, dermatopontin (DPT), exogenous (UniProt Q07507); assay: co-IP; exogenous DPT and YAP; lysate incubated with primary antibody or IgG, protein A and protein G, 4 °C overnight; western blot
T2 sequence: T1 sequence

binding [1] | binding [2] | Substance
binds | – | Yes-associated protein (YAP), endogenous (from UniProt P46937 1-504)
– | binds | Yes-associated protein (YAP), exogenous (from UniProt P46937 1-504)
